Experimental data from patent US20150285806A1.
No constants are given. Whether binding was seen depends on the method and setting. Some entries that bind do so weakly or less than the wild type. Values belong to the binder of their own block, whether it stands above or below them.

Sequences of proteins named here, by UniProt entry; tags and fusion partners are left off. A change or cut given only in a name is not applied to a line headed by its entry.
UniProt P51654: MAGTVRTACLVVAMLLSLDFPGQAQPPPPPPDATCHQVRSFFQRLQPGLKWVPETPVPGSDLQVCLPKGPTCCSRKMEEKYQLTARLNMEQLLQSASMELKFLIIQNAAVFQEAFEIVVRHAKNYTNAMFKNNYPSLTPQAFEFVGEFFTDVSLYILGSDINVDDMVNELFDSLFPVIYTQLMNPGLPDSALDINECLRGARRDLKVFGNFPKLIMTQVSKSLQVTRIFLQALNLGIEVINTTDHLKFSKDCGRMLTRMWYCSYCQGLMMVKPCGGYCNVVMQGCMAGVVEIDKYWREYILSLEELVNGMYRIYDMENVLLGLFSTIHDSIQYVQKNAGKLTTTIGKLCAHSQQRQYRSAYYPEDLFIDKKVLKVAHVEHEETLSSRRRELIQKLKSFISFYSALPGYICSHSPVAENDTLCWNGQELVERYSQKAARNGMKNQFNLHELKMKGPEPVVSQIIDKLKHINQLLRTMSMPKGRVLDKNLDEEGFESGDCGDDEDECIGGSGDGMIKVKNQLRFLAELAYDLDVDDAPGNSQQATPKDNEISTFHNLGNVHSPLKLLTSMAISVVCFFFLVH

Target: free GPC3 (Homo sapiens (Human)) (UniProt P51654)
Assay: antibody selection; method not described (prepared per WO2004/022739)

binding: binds
B1: GT165 antibody (antibody, V domains shown)
VH: QVQLQQSGAELVGPGASVKISCKAFGYTFTNHHINWVKQRPGQGLDWIGYINPYNDYTNYNQKFKGKATLTVDKSSSTAYMELSSLTSEDSAVYYCARSDPAWFAYWGQGTLVTVSA
VL: DIQMTQSPSSLSASLGGKVTITCKASQDINKNIAWYQHKPGKGPRLLIWYTYTLQPGIPSRFSGSGSGRDYSFSISNLEPEDIATYYCLQYDNLPFTFGTGTKLEIKR

binding: binds
B2: GT30 antibody (antibody, V domains shown)
VH: QVQLQQSGAELARPGASVKLSCRASGYTFTSYGISWMMQRTGQGLEWIGEIYPRSGITYYNEKFKGKATLTADKSSSTAYMQLSSLTSEDSAVYFCARDVSDGYLFPYWGQGTLVTVSA
VL: DIQMTQSPASLSASVGETVTITCRTSENIYSYLAWYQQKQGKSPQLLVYNAKTLPEGVPSRFSGSGSGTQFSLKINSLQPEDFGSYYCQHHYGTPPTFGGGTKLEIKR

binding: binds
B3: GT607 antibody (antibody, V domains shown)
VH: EVQLVESGGDVVRPGGSLKLSCAASGFTFSSYGMSWVRQLPDKRLEWVASVGNGGSYRYYPENLKGRFTISRDNTKNTLYLQISGLKSEDTAIYYCARRGAFPYFDVWGAGTTVTVSS
VL: B2 VL

binding: binds
B4: GT114 antibody (antibody, V domains shown)
VH: DVQLQESGPGLVKPSQSLSLTCTVTGYSITSDSAWNWIRQFPGNKLEWMAYIMYSGITSYNPSLKSRISITRDTAKNQFFLQLNSVTTEDSATYYCSRGYWYFDVWGAGTTVTVSS
VL: QIVLTQSPAIMSASLGEEITLTCSASSSVSYMHWYQQKSGTSPKLLIYSTSILASGVPSRFSGSGSGTFYSLTISSVEAEDAADYYCLQWITYRTFGGGTKLEIKR
